The other results are listed elsewhere or left out. These are further read-outs of the screen, such as a control signal, another cell line or another target. No call is given for them.
Legend:
[1] = growth inhibition of wild-type GFP E. coli, dose response, h38 mutant RFP, cherry-pick (AID 977622); settings: E. coli mixed culture, 24 h, total growth OD600 at 50 uM
[2] = tested on: E. coli h38 humanized mutant ribosome RFP fluorescence, mixed culture, 24 h; assay: as above; settings: h38 mutant RFP at 50 uM

SMILES	activity change [1] [%]	activity change [2] [%]
CC(=O)Oc1c(Cl)cc(N(C(C)=O)S(=O)(=O)c2ccccc2)c2ccccc12	-51	27.4
O=S(=O)(c1ccc(Cl)cc1)N1CCN=C1SCc1cccc(Cl)c1	-6.7	52.5
Cc1ccc(S(=O)(=O)NCc2c(-c3ccccc3)noc2C)cc1	-38.3	9.6
COc1cccc(NC(=O)C(C)SCc2ccccc2)c1 (stereo unspecified)	-3.38	-0.103
COc1ccc(CNC(=O)c2cc3c(s2)CN(Cc2ccccc2)C3)cc1	-48.3	3.16
Nc1nc(Nc2ccccc2)nc(NCc2ccccc2)c1[N+](=O)[O-]	-35.9	-27.8
Cc1cc(C)c(OCCN(C)Cc2ccccc2)c(Br)c1	-6.5	3.73
C[C@H](CO)N1C[C@H](C)[C@@H](CN(C)Cc2ccncc2)OCc2ccccc2-c2c(n(C)c3ccccc23)C1=O	-76	-3.44
O=S(=O)(c1ccccc1)N1CC[C@@H]2[C@H](CO)Nc3ccc(Br)cc3[C@@H]21	-56.1	-22.7
CCOc1ccccc1C(=O)OCC(=O)NCCc1ccc(OC)cc1	-47.8	3.21
O=C1c2ccccc2C(c2nnnn2Cc2ccccc2)N1CCc1ccc(O)cc1 (stereo unspecified)	-41	-33.1
O=C(O)C1(Nc2ccc([N+](=O)[O-])cc2[N+](=O)[O-])CCCC1	-14.3	-49.7
CCOc1cccc(-c2cc(-c3n[nH]c(=S)n3CC)c3ccccc3n2)c1	-16.5	8.04
CC(C)N1CC2(CC(c3ccccc3C(F)(F)F)=NO2)CN1C(=O)c1ccco1 (stereo unspecified)	-21.9	58.1
O=C(O)C1CCCCC1C(=O)Nc1ccc(OCc2ccccc2)cc1 (stereo unspecified)	-42.2	2.03
O=C(Nc1cc(F)ccc1F)N1CCCCN2[C@@H](CO)[C@H](c3ccc(-c4ccncc4)cc3)[C@@H]2C1	0.557	6.29
CC1Cc2ccccc2N1C(=O)c1ccc(N2CCCCC2)c([N+](=O)[O-])c1 (stereo unspecified)	-50.1	-8.2
Cc1cc(Br)c2nc(-c3ccc(Cl)cc3)c(Cc3cccc(Cl)c3)n2c1	-6.91	21.5
O=C(CCNC(=O)c1ccccc1)Nc1ccc(Cl)c(S(=O)(=O)N2CCCCC2)c1	-49	-27.7
CCN(CC)CCN(C(=O)c1ccccc1OC)c1nc2ccc(F)cc2s1	-26.1	1.33
Fc1ccc(-c2nc3ccc(Cl)cn3c2Cc2cccc(Cl)c2)cc1	-37.3	

Quoted from the listing:
activity change [2] [%] with CCOc1ccccc1C(=O)OCC(=O)NCCc1ccc(OC)cc1 is entered as 3.21
activity change [1] [%] with Cc1cc(C)c(OCCN(C)Cc2ccccc2)c(Br)c1 is entered as -6.5

From PubChem BioAssay AID977622 (Broad Institute, 2014)
